Test results from the supplement of paper PMC10735217.
Counter-ions that a name gives are not always drawn. The list shows a part of the results. Single values are uncertain here, since repeats match poorly.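 In a drug-repurposing library screen, luminescence reads luciferase driven by eight TEAD-binding elements, stably integrated into human kidney-derived cells. Compounds scoring over five robust Z scores above the plate mean are called hits.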

System: HEK293A TEAD-LUC reporter
Test: TEAD-luciferase reporter activity (YAP activation), robust Z score vs plate; higher = stronger YAP/TEAD activation
Conditions: 24 h

**Q.** `CCOC(=O)CN(CCN(CC(=O)O)Cc1ccccc1O)Cc1ccccc1O` was tested. Which TEAD-luciferase reporter activity (compound concentration: 200 nM) did it give?
**A.** Its TEAD-luciferase reporter activity is inactive: -0.298.

**Q.** What about the TEAD-luciferase reporter activity (compound concentration: 2 uM) of the same compound?
**A.** Its TEAD-luciferase reporter activity is inactive: 2.16.

**Q.** What about the TEAD-luciferase reporter activity (compound concentration: 10 uM) of the same compound?
**A.** Its TEAD-luciferase reporter activity is inactive: 2.31.

**Q.** Which results are given for `CC(C)(Sc1cc(C(C)(C)C)c(O)c(C(C)(C)C)c1)Sc1cc(C(C)(C)C)c(COC(=O)O)c(C(C)(C)C)c1`?
**A.** TEAD-luciferase reporter activity (compound concentration: 200 nM): inactive: -1.94; TEAD-luciferase reporter activity (compound concentration: 2 uM): inactive: 0.425; TEAD-luciferase reporter activity (compound concentration: 10 uM): inactive: 0.0605

**Q.** What does the source list for `CS(=O)(=O)c1ccc(-n2nc(C(F)(F)F)cc2-c2ccc(F)cc2)cc1`?
**A.** TEAD-luciferase reporter activity (compound concentration: 200 nM): inactive: -1.8; TEAD-luciferase reporter activity (compound concentration: 2 uM): inactive: -0.773; TEAD-luciferase reporter activity (compound concentration: 10 uM): inactive: 1.71

**Q.** For `CC(C)NCC(O)COc1ccccc1C1CC1` (stereo not drawn) [Procinolol], which TEAD-luciferase reporter activity (compound concentration: 200 nM) is on record?
**A.** Its TEAD-luciferase reporter activity is inactive: 0.58.

**Q.** And the TEAD-luciferase reporter activity (compound concentration: 2 uM)?
**A.** Its TEAD-luciferase reporter activity is inactive: 0.132.

**Q.** And the TEAD-luciferase reporter activity (compound concentration: 10 uM)?
**A.** The TEAD-luciferase reporter activity was inactive: 0.536.

**Q.** Which TEAD-luciferase reporter activity (compound concentration: 200 nM) does the source give for `O=C(Nc1cccc2c(=O)cc(-c3nnn[nH]3)oc12)c1ccc2c(c1)CC(COCc1ccc(F)cc1)O2` (stereo not drawn) here?
**A.** The TEAD-luciferase reporter activity was inactive: 1.97.

**Q.** And the TEAD-luciferase reporter activity (compound concentration: 2 uM)?
**A.** The TEAD-luciferase reporter activity was inactive: -0.807.

**Q.** What about the TEAD-luciferase reporter activity (compound concentration: 10 uM) of the same compound?
**A.** The TEAD-luciferase reporter activity was inactive: -0.338.

**Q.** What does the source list for `CC(C)NC(=O)N1CNC(=O)C12CCN(C(=O)C1CCN(C)CC1)CC2`?
**A.** TEAD-luciferase reporter activity (compound concentration: 200 nM): inactive: -1.79; TEAD-luciferase reporter activity (compound concentration: 10 uM): inactive: 0.302

**Q.** How did the TEAD-luciferase reporter activity (compound concentration: 200 nM) turn out when `O=c1c2ccccc2c(Cc2ccc(Cl)cc2)nn1C[C@H]1CCCN1CCCCc1ccc(OCCCN2CCCCCC2)cc1` was run?
**A.** Its TEAD-luciferase reporter activity is inactive: -1.33.

**Q.** And the TEAD-luciferase reporter activity (compound concentration: 2 uM)?
**A.** The TEAD-luciferase reporter activity was inactive: 0.0765.

**Q.** What about the TEAD-luciferase reporter activity (compound concentration: 10 uM) of the same compound?
**A.** Its TEAD-luciferase reporter activity is inactive: 1.23.

**Q.** With `COc1ccc(Cl)cc1C1(F)C(=O)N(COP(=O)(O)O)c2cc(C(F)(F)F)ccc21` (stereo not drawn) as the compound, how does the TEAD-luciferase reporter activity (compound concentration: 200 nM) read?
**A.** Its TEAD-luciferase reporter activity is inactive: 0.357.

**Q.** And the TEAD-luciferase reporter activity (compound concentration: 2 uM)?
**A.** Its TEAD-luciferase reporter activity is inactive: -1.07.

**Q.** What about the TEAD-luciferase reporter activity (compound concentration: 10 uM) of the same compound?
**A.** The TEAD-luciferase reporter activity was inactive: 1.29.

**Q.** How did the TEAD-luciferase reporter activity (compound concentration: 200 nM) turn out when `COC(=O)NC1CCCN(c2nc3ncccc3o2)C1` (stereo not drawn) was run?
**A.** The TEAD-luciferase reporter activity was inactive: -0.558.

**Q.** What about the TEAD-luciferase reporter activity (compound concentration: 10 uM) of the same compound?
**A.** The TEAD-luciferase reporter activity was inactive: -0.0692.

**Q.** For `COc1cc(C(C)=O)ccc1OCCCN1CCC(c2noc3cc(F)ccc23)CC1` [iloperidone injection], which TEAD-luciferase reporter activity (compound concentration: 200 nM) is on record?
**A.** The TEAD-luciferase reporter activity was inactive: -0.781.

**Q.** And the TEAD-luciferase reporter activity (compound concentration: 2 uM)?
**A.** The TEAD-luciferase reporter activity was inactive: -0.523.

**Q.** What about the TEAD-luciferase reporter activity (compound concentration: 10 uM) of the same compound?
**A.** Its TEAD-luciferase reporter activity is inactive: -0.557.

**Q.** Which results are given for `O=C(c1ccc2c(c1)OCO2)n1c(=O)c(F)cn([C@H]2C[C@H](O)[C@@H](CO)O2)c1=O`?
**A.** TEAD-luciferase reporter activity (compound concentration: 200 nM): inactive: -1.72; TEAD-luciferase reporter activity (compound concentration: 2 uM): inactive: -1.28; TEAD-luciferase reporter activity (compound concentration: 10 uM): inactive: -1.16

**Q.** Which TEAD-luciferase reporter activity (compound concentration: 200 nM) does the source give for `CC1=NN(CCOc2ccc3ccccc3c2)C(=O)C1` here?
**A.** Its TEAD-luciferase reporter activity is inactive: -0.362.

**Q.** And the TEAD-luciferase reporter activity (compound concentration: 2 uM)?
**A.** The TEAD-luciferase reporter activity was inactive: -0.713.

**Q.** And the TEAD-luciferase reporter activity (compound concentration: 10 uM)?
**A.** Its TEAD-luciferase reporter activity is inactive: -0.554.

**Q.** With `CC(C)(O)c1ccccc1CC[C@H](SCC1(C(=O)O)CC1)c1cccc(/C=C/c2ccc3ccc(Cl)cc3n2)c1` as the compound, how does the TEAD-luciferase reporter activity (compound concentration: 200 nM) read?
**A.** The TEAD-luciferase reporter activity was inactive: -0.547.

**Q.** And the TEAD-luciferase reporter activity (compound concentration: 2 uM)?
**A.** Its TEAD-luciferase reporter activity is inactive: 1.91.

**Q.** What about the TEAD-luciferase reporter activity (compound concentration: 10 uM) of the same compound?
**A.** Its TEAD-luciferase reporter activity is active: 7.4.

**Q.** Which results are given for `N[C@@H](C=O)[C@@H](O)[C@@H](O)[C@H](O)CO` [glucosamine sulfate]?
**A.** TEAD-luciferase reporter activity (compound concentration: 200 nM): inactive: -1.26; TEAD-luciferase reporter activity (compound concentration: 2 uM): inactive: 1.1; TEAD-luciferase reporter activity (compound concentration: 10 uM): inactive: -0.151

**Q.** Which TEAD-luciferase reporter activity (compound concentration: 200 nM) does the source give for `COc1ccc(OC)c(Cc2nc3ccc(OC(C)C)cc3c(=O)n2CCN(C)C)c1` here?
**A.** Its TEAD-luciferase reporter activity is inactive: 0.389.

**Q.** What about the TEAD-luciferase reporter activity (compound concentration: 2 uM) of the same compound?
**A.** Its TEAD-luciferase reporter activity is inactive: -0.69.

**Q.** What about the TEAD-luciferase reporter activity (compound concentration: 10 uM) of the same compound?
**A.** Its TEAD-luciferase reporter activity is inactive: -0.642.
